In one experiment the target is GFP-NDR1 (UniProt Q15208). Kind of experiment: co-IP; GFP-NDR1 in 293 T cells (SI Appendix Fig. S6C).
The next experiment addresses WT GFP-FRYL (UniProt O94915). The experiment is described as follows: co-IP; IP of WT GFP-FRYL and the FRYL HBMs M1 and M2 from 293 T cell lysates.

Amino acid sequences for entries named in this document (tags omitted).
UniProt Q15208: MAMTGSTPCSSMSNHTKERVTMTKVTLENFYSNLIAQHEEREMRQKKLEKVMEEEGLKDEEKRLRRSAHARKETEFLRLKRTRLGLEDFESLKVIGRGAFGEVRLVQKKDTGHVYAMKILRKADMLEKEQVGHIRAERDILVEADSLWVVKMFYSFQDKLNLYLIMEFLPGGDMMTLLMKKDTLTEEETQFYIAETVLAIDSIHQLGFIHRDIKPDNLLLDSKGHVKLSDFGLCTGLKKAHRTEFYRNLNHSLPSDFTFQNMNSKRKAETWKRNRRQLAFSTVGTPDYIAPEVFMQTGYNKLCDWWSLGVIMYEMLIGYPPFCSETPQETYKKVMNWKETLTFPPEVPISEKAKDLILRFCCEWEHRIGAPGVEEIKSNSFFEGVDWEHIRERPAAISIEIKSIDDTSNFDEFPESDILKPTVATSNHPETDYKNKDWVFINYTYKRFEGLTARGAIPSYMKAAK
UniProt O94915: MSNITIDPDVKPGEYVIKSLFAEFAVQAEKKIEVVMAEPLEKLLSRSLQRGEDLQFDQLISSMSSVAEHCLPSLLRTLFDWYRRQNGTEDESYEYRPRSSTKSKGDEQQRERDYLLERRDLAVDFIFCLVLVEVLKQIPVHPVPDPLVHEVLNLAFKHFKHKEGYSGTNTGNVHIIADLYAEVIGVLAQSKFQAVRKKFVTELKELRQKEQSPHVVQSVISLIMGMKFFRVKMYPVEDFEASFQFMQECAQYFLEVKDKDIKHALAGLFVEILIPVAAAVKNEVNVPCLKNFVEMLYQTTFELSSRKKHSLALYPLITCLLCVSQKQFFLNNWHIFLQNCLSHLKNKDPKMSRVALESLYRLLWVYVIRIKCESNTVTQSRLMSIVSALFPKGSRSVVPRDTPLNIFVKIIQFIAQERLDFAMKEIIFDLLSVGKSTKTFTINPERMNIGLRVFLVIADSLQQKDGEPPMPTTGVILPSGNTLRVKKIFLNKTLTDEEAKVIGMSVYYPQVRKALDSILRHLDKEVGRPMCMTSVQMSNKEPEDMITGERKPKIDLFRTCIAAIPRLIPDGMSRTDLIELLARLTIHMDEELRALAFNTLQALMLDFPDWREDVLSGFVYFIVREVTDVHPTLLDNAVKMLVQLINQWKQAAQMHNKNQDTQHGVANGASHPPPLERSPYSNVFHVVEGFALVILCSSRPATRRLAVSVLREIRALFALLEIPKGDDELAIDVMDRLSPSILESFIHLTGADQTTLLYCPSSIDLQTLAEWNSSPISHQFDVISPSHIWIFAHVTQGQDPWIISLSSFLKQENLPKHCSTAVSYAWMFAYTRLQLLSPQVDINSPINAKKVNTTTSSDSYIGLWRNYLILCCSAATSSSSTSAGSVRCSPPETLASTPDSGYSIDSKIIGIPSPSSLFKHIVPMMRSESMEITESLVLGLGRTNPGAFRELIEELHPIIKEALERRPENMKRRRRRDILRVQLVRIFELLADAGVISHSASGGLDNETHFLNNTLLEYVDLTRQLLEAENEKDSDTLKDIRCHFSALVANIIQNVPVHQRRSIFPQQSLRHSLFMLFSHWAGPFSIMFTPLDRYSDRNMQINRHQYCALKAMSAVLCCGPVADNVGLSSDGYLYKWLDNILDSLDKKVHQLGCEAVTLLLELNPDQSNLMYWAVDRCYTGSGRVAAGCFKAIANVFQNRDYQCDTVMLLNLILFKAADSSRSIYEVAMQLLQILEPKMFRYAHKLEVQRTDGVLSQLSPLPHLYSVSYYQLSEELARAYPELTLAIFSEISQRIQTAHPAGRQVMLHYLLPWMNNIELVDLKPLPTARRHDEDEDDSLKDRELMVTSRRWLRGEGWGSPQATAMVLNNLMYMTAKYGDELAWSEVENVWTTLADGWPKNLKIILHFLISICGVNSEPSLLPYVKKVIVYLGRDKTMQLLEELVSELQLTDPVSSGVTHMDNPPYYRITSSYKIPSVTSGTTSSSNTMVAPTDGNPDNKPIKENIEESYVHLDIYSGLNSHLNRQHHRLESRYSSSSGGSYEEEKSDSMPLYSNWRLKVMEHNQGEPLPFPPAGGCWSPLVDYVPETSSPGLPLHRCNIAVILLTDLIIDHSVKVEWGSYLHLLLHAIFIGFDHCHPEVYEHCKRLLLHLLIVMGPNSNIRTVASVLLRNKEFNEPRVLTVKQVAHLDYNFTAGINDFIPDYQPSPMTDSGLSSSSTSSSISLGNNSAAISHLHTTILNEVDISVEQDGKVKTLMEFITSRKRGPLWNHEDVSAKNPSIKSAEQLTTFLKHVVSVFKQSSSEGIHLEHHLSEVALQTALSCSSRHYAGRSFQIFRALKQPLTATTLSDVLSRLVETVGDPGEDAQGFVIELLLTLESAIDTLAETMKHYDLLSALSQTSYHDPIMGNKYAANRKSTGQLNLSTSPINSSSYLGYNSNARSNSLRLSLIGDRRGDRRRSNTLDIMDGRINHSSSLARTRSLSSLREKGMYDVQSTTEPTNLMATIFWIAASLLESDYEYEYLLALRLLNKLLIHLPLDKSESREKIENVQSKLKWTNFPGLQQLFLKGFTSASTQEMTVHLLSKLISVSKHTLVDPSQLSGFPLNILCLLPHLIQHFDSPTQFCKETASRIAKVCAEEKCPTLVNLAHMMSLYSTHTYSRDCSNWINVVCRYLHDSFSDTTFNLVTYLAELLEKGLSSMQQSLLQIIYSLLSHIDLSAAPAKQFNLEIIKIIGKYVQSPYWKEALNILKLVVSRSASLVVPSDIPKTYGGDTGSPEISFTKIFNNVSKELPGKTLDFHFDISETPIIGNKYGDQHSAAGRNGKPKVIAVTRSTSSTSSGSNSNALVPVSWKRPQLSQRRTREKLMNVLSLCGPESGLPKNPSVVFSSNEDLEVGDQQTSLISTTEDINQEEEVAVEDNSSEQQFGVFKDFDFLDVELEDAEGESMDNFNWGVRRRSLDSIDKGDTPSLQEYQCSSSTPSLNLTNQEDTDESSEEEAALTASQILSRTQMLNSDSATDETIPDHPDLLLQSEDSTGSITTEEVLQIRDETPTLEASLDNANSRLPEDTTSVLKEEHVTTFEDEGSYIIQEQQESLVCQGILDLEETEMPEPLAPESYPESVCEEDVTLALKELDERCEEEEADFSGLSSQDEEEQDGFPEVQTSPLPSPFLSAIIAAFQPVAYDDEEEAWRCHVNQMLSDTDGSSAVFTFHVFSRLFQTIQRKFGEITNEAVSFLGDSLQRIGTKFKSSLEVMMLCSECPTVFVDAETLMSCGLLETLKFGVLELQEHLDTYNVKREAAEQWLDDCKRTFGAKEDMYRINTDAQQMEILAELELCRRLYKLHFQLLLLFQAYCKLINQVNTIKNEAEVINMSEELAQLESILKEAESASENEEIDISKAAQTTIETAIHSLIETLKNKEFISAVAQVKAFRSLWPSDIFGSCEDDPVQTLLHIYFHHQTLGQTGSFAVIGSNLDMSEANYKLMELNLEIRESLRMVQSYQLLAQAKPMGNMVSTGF

No constants are given. Whether binding was seen depends on the method and setting. In cells and extracts the contact can be indirect. Some results given as binding are weak or reduced against the parent protein; the word gives no strength. For some assays here: Sequences can lack the tags named with a protein.

With “FRYL (in 293 T cells, co-IP with GFP-NDR1) (from UniProt O94915 1-3013)”, the binding result in the experiment with GFP-NDR1 is on record as “binds”.

B1: MOB1a (protein, UniProt Q9H8S9 1-216)
chain: MSFLFSSRSSKTFKPKKNIPEGSHQYELLKHAEATLGSGNLRQAVMLPEGEDLNEWIAVNTVDFFNQINMLYGTITEFCTEASCPVMSAGPRYEYHWADGTNIKKPIKCSAPKYIDYLMTWVQDQLDDETLFPSKIGVPFPKNFMSVAKTILKRLFRVYAHIYHQHFDSVMQLQEEAHLNTSFKHFIFFVQEFNLIDRRELAPLQELIEKLGSKDR
Take B1: in the experiment with GFP-NDR1, the binding result is given as “binds”.

B2: Homer2 (293 T cell lysate, IP of GFP-FRYL) (protein, UniProt Q9NSB8 1-354)
chain: MGEQPIFTTRAHVFQIDPNTKKNWMPASKQAVTVSYFYDVTRNSYRIISVDGAKVIINSTITPNMTFTKTSQKFGQWADSRANTVFGLGFSSEQQLTKFAEKFQEVKEAAKIAKDKTQEKIETSSNHSQESGRETPSSTQASSVNGTDDEKASHAGPANTHLKSENDKLKIALTQSAANVKKWEIELQTLRESNARLTTALQESAASVEQWKRQFSICRDENDRLRNKIDELEEQCSEINREKEKNTQLKRRIEELEAELREKETELKDLRKQSEIIPQLMSECEYVSEKLEAAERDNQNLEDKVRSLKTDIEESKYRQRHLKVELKSFLEVLDGKIDDLHDFRRGLSKLGTDN
Regarding B2, the binding result with WT GFP-FRYL is “binds”.

B3: Homer3 (293 T cell lysate, IP of GFP-FRYL) (protein, UniProt Q9NSC5 1-361)
chain: MSTAREQPIFSTRAHVFQIDPATKRNWIPAGKHALTVSYFYDATRNVYRIISIGGAKAIINSTVTPNMTFTKTSQKFGQWADSRANTVYGLGFASEQHLTQFAEKFQEVKEAARLAREKSQDGGELTSPALGLASHQVPPSPLVSANGPGEEKLFRSQSADAPGPTERERLKKMLSEGSVGEVQWEAEFFALQDSNNKLAGALREANAAAAQWRQQLEAQRAEAERLRQRVAELEAQAASEVTPTGEKEGLGQGQSLEQLEALVQTKDQEIQTLKSQTGGPREALEAAEREETQQKVQDLETRNAELEHQLRAMERSLEEARAERERARAEVGRAAQLLDVSLFELSELREGLARLAEAAP
B3: the binding entry with WT GFP-FRYL is “binds”.

B4: Homer1 (293 T cell lysate, IP of GFP-FRYL) (protein, UniProt Q86YM7 1-354)
chain: MGEQPIFSTRAHVFQIDPNTKKNWVPTSKHAVTVSYFYDSTRNVYRIISLDGSKAIINSTITPNMTFTKTSQKFGQWADSRANTVYGLGFSSEHHLSKFAEKFQEFKEAARLAKEKSQEKMELTSTPSQESAGGDLQSPLTPESINGTDDERTPDVTQNSEPRAEPTQNALPFSHSSAISKHWEAELATLKGNNAKLTAALLESTANVKQWKQQLAAYQEEAERLHKRVTELECVSSQANAVHTHKTELNQTIQELEETLKLKEEEIERLKQEIDNARELQEQRDSLTQKLQEVEIRNKDLEGQLSDLEQRLEKSQNEQEAFRNNLKTLLEILDGKIFELTELRDNLAKLLECS
With B4, the binding result with WT GFP-FRYL is on record as “binds”.

The values are drawn from paper PMC13389695.
